# Assay results published in publication PMC12012171.
# These are yes or no findings as the source states them, for the method shown. Binding seen in cells or lysates may run through a third protein. Some entries that bind do so weakly or less than the wild type.
# T1: SNAP-23 (mouse (endogenous in BMMCs)) (UniProt O09044)
# T1 sequence: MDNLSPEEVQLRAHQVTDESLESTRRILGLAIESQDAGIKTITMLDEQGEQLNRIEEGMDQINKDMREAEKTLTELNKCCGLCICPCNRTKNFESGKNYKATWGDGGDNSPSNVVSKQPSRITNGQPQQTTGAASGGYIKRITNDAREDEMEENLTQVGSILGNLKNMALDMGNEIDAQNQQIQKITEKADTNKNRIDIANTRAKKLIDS
# B1: VAMP-8 (protein, UniProt O70404 1-101)
# chain: MEEASGSAGNDRVRNLQSEVEGVKNIMTQNVERILSRGENLDHLRNKTEDLEATSEHFKTTSQKVARKFWWKNVKMIVIICVIVLIIVILIILFATGTIPT
# Target: T1, SNAP-23 (mouse (endogenous in BMMCs))
# Experiment: co-IP; lysates of IgE-primed WT and PRL2-KO BMMCs, resting or stimulated with DNP-BSA for indicated time; incubated with SNAP-23 antibodies overnight at 4 °C, rProtein A/G Agarose Resin 3 h at 4 °C; western blot
binder,measurement,value
B1,binding,binds weakly
